We go through six targets from the supplement of paper PMC12819154, “High-throughput peptide-centric local stability assay extends protein–ligand identification to membrane proteins, tissues and bacteria” (Nature Structural & Molecular Biology, 2025).

Chains of the proteins cited; added tags and fusions are not shown. Lines headed by an entry give the natural chain unless they say otherwise; changes in a name come on top.
UniProt Q80VW7: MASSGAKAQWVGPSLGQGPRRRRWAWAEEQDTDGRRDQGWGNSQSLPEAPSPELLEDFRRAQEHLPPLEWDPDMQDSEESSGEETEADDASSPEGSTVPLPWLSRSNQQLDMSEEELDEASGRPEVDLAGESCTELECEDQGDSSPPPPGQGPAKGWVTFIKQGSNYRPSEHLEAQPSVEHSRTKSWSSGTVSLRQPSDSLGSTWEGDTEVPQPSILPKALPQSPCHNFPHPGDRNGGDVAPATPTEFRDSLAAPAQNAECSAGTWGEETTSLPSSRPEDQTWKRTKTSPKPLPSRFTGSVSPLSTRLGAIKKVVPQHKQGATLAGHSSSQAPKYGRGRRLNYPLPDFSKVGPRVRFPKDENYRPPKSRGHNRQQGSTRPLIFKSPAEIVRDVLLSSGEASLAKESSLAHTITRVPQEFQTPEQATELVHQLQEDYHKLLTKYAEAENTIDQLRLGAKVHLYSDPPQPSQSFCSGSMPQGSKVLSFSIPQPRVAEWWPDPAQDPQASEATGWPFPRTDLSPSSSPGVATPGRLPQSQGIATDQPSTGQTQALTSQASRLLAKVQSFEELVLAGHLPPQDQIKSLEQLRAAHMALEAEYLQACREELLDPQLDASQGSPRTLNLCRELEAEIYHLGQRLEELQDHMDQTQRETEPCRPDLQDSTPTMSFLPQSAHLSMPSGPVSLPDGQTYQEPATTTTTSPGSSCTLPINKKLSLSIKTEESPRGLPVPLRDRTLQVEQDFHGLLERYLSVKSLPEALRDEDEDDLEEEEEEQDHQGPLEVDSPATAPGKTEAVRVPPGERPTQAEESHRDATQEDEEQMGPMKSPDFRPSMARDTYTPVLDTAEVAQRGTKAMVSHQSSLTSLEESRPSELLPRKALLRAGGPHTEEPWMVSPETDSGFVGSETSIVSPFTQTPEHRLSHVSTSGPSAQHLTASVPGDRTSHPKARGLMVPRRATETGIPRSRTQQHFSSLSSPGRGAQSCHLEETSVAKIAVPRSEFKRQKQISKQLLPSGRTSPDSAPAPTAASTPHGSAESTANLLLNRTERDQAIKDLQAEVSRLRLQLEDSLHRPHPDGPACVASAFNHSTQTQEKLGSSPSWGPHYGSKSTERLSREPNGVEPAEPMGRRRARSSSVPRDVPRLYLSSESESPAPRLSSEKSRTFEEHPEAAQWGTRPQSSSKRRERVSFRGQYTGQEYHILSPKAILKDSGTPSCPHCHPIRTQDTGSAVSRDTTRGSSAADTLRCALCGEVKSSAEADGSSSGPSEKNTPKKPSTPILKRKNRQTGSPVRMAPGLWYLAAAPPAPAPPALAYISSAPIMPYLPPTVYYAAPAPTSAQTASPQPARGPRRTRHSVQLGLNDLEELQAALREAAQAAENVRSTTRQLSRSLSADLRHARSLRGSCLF
UniProt Q8BHJ5: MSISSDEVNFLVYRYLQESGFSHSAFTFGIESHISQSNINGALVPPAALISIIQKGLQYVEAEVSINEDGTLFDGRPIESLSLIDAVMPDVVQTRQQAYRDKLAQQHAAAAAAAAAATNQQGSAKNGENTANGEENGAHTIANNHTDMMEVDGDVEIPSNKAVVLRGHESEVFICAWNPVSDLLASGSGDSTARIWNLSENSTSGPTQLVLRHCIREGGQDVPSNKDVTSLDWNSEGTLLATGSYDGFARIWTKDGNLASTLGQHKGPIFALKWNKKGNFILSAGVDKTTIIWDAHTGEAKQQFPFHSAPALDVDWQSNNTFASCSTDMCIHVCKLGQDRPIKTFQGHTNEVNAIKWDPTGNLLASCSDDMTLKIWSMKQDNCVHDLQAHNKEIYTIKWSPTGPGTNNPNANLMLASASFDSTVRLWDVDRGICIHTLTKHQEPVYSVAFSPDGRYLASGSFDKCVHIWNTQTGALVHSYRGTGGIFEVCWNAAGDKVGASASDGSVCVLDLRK
UniProt Q80Y44, whole entry: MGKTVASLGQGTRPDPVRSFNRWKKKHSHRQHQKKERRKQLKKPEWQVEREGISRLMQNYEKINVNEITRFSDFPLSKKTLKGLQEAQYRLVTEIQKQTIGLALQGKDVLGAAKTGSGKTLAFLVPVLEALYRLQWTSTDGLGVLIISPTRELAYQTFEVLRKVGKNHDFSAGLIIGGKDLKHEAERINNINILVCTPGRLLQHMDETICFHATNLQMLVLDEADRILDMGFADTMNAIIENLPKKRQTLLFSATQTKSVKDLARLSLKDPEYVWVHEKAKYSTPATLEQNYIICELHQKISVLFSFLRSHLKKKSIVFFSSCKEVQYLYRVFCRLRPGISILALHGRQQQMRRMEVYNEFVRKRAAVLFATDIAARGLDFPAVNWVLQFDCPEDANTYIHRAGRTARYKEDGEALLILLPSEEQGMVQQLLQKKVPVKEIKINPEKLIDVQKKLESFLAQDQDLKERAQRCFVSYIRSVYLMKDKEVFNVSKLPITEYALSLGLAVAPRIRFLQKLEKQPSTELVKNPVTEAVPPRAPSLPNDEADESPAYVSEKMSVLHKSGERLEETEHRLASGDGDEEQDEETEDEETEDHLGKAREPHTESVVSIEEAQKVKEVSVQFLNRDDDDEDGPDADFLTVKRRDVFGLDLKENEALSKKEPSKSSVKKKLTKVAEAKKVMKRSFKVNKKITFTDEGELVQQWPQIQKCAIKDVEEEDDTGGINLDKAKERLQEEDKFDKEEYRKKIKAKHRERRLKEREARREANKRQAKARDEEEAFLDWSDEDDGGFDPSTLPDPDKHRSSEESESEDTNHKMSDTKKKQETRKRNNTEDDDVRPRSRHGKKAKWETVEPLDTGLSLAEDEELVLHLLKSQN
UniProt Q8BH52: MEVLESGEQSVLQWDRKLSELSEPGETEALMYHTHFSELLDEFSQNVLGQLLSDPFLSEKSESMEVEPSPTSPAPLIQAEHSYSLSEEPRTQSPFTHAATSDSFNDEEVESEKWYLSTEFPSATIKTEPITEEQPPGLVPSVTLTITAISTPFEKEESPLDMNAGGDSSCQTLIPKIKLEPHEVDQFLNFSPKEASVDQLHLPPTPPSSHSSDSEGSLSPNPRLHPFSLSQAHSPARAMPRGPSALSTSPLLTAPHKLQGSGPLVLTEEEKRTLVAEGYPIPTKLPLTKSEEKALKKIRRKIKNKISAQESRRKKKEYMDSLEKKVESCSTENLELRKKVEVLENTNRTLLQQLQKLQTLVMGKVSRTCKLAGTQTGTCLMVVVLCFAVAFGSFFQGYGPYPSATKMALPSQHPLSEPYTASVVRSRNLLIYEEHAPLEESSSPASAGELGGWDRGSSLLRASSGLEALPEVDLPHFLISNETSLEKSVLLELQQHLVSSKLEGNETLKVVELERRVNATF
UniProt Q810L3: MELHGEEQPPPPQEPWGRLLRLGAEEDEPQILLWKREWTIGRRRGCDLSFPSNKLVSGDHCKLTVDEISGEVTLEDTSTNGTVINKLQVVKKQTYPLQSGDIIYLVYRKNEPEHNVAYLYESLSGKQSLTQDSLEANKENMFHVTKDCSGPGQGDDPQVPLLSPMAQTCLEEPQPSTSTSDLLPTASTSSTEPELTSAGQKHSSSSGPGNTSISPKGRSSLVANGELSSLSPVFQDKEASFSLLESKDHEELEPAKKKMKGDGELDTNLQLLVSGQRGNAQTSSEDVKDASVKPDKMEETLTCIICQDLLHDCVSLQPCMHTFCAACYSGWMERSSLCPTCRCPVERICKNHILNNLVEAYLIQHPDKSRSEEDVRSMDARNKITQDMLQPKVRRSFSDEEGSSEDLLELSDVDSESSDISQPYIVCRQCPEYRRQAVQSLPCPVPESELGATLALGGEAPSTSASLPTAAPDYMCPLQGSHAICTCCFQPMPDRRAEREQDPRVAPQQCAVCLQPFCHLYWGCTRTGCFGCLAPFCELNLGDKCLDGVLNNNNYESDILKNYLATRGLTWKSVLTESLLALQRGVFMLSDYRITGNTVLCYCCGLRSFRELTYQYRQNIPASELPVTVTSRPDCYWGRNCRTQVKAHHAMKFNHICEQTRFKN
UniProt Q8BGC4: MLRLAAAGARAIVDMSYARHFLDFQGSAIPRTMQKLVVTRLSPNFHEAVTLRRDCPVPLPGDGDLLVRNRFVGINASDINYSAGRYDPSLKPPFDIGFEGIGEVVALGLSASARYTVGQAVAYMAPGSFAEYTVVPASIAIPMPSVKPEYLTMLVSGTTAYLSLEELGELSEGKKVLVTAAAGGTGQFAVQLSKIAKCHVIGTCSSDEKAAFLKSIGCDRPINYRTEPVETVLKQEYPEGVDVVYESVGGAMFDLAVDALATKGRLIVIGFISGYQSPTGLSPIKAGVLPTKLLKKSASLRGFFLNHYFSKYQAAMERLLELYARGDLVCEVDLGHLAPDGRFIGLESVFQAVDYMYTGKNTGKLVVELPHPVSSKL

This is one part of the list. Most values lie at the level of the controls, where differences are scatter.

Compound in this test: CN[C@@H]1C[C@H]2O[C@@](C)([C@@H]1OC)n1c3ccccc3c3c4c(c5c6ccccc6n2c5c31)C(=O)NC4 [staurosporine]
Briefly: log2 fold change of tryptic peptide abundance, ligand vs vehicle (limited proteolysis) (log2 ratio); higher = more trypsin-susceptible (destabilized). The following applies: ligand concentration: 20 uM; sample: mouse liver crude lysate; replicate design: treated separately.
In the case of “UniProt Q80VW7 (peptide sequence: DLQAEVSR, peptide start residue: 1052)”, the log2 fold change was found to be 0.0756.

For the target “UniProt Q8BHJ5 (peptide sequence: DKLAQQHAAAAAAAAAATNQQGSAK, peptide start residue: 101)”, the log2 fold change is -0.123. For the target “UniProt Q80Y44 (peptide sequence: FLQKLEK, peptide start residue: 513)”, the log2 fold change turned out to be 0.397. “UniProt Q8BH52 (peptide sequence: LQGSGPLVLTEEEKR, peptide start residue: 258)”: the log2 fold change is 0.0914. For “UniProt Q810L3 (peptide sequence: NKITQDMLQPK, peptide start residue: 382)”, the log2 fold change is -0.344. Take “UniProt Q8BGC4 (peptide sequence: GFFLNHYFSK, peptide start residue: 302)”: the log2 fold change turned out to be 0.176.
